Assay results: the supplement of paper PMC10849652
The list shows a part of the results.

Chains of the proteins cited; added tags and fusions are not shown. Lines headed by an entry give the natural chain unless they say otherwise; changes in a name come on top.
UniProt O94826, whole entry, looked up: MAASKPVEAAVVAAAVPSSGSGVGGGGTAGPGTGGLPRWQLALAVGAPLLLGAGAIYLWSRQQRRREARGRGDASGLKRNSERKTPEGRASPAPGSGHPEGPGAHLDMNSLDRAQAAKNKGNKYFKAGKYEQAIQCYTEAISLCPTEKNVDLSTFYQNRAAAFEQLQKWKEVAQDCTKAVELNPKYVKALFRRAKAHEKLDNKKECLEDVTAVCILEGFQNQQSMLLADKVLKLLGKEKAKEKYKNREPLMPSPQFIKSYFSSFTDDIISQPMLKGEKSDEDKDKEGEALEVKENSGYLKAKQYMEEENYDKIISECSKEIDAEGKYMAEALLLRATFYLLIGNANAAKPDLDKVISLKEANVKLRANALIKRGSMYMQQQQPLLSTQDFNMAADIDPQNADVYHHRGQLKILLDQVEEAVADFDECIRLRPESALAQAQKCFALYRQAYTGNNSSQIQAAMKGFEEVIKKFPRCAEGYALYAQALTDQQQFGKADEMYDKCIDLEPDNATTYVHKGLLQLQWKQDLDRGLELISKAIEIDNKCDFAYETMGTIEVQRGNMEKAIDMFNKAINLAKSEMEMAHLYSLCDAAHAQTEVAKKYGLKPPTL
UniProt O94886: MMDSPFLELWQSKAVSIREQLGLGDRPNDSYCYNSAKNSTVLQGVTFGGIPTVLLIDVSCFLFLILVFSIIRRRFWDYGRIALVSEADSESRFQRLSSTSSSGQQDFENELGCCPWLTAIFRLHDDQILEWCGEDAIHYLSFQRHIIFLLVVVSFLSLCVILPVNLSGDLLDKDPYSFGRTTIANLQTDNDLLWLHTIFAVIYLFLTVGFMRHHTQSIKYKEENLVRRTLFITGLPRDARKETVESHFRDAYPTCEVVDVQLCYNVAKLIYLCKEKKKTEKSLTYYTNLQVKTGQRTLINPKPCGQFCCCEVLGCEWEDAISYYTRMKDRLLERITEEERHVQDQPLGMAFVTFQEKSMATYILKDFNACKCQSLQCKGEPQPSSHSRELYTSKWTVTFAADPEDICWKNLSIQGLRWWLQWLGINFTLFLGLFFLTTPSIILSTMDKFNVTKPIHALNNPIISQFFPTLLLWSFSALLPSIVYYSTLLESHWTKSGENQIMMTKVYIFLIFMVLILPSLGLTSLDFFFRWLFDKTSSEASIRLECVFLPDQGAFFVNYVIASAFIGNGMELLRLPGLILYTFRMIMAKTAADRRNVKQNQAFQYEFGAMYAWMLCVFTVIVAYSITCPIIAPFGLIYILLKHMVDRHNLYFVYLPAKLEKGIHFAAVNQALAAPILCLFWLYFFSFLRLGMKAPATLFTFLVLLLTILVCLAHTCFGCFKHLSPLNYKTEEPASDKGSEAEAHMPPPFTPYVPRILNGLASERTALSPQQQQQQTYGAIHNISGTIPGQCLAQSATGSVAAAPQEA
UniProt O60784, whole entry, looked up: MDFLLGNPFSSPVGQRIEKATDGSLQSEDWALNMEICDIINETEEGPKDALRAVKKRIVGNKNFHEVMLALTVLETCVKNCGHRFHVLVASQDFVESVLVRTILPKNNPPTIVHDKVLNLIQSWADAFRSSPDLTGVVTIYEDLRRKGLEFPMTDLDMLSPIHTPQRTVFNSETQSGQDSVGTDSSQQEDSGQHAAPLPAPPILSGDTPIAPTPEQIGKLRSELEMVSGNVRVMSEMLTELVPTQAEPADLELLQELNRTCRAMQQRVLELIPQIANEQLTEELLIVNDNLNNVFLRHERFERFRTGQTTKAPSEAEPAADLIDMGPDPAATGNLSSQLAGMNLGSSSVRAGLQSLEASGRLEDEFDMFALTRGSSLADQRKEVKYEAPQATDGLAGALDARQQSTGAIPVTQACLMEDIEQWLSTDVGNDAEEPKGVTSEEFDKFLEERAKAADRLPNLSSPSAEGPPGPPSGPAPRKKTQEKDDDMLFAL
UniProt P28289: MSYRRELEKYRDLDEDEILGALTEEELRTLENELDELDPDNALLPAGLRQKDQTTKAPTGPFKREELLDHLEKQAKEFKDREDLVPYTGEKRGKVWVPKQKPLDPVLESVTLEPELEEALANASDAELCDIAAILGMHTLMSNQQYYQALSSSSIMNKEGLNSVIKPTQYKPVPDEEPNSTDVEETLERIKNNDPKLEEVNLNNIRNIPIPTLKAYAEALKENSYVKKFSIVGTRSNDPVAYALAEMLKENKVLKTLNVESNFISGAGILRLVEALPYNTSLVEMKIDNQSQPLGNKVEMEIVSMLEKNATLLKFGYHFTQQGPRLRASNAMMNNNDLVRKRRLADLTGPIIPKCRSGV
UniProt P67936, whole entry, looked up: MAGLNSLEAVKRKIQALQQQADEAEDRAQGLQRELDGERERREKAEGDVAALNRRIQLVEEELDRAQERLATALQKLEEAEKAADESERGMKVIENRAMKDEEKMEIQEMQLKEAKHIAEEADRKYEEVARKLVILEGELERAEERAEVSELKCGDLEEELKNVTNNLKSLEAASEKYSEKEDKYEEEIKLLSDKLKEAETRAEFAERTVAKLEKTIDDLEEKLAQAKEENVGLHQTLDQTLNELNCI
UniProt Q9C0C2: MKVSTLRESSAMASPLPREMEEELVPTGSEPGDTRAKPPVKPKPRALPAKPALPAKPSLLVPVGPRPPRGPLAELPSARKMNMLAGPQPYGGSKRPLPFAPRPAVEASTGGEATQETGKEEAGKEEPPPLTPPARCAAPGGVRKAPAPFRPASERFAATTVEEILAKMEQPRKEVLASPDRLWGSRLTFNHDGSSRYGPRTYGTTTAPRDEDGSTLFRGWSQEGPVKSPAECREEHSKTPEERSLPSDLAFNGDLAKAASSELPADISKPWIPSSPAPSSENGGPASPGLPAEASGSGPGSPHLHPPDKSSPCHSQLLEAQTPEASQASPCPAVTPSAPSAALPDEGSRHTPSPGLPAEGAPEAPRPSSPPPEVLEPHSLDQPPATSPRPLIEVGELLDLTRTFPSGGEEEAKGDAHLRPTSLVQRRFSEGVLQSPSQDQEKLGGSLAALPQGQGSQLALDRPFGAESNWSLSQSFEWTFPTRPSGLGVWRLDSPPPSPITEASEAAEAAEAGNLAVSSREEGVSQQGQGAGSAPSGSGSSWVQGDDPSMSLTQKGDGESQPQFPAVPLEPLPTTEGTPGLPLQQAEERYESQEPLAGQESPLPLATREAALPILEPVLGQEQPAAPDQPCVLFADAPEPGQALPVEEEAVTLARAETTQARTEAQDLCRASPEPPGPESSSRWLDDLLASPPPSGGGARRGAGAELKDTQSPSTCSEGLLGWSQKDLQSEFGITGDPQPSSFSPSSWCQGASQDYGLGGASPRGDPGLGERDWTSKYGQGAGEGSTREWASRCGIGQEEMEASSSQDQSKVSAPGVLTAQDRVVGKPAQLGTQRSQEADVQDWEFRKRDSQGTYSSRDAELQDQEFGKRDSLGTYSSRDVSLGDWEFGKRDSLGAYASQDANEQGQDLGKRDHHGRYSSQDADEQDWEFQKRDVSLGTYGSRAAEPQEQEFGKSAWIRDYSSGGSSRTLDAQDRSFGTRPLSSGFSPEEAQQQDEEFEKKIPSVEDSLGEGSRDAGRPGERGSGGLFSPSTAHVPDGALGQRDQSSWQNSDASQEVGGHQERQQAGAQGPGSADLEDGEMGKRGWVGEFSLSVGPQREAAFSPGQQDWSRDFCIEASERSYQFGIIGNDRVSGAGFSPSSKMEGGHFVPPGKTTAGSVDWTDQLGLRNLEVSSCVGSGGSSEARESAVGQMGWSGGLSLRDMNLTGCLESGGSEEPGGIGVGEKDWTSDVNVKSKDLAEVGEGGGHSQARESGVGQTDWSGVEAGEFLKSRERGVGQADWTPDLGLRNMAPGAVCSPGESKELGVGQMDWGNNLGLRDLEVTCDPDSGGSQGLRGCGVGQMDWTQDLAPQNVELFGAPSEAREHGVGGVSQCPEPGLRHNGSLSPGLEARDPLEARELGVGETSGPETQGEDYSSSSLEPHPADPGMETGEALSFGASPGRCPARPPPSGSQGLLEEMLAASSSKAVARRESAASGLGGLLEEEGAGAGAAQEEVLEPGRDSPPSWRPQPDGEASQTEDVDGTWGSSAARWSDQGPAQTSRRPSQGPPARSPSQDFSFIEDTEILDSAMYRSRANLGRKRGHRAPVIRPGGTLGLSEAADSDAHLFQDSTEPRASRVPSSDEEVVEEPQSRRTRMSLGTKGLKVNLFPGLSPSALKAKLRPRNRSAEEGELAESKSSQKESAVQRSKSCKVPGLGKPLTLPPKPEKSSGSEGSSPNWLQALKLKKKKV
UniProt Q13595: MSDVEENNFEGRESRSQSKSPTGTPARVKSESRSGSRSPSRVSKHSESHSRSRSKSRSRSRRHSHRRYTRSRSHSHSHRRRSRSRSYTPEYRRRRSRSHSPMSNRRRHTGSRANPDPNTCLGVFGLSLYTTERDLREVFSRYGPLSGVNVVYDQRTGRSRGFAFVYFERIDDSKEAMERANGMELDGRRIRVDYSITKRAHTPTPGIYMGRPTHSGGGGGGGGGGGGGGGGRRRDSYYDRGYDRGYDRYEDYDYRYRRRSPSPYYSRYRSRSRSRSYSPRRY
UniProt P11387: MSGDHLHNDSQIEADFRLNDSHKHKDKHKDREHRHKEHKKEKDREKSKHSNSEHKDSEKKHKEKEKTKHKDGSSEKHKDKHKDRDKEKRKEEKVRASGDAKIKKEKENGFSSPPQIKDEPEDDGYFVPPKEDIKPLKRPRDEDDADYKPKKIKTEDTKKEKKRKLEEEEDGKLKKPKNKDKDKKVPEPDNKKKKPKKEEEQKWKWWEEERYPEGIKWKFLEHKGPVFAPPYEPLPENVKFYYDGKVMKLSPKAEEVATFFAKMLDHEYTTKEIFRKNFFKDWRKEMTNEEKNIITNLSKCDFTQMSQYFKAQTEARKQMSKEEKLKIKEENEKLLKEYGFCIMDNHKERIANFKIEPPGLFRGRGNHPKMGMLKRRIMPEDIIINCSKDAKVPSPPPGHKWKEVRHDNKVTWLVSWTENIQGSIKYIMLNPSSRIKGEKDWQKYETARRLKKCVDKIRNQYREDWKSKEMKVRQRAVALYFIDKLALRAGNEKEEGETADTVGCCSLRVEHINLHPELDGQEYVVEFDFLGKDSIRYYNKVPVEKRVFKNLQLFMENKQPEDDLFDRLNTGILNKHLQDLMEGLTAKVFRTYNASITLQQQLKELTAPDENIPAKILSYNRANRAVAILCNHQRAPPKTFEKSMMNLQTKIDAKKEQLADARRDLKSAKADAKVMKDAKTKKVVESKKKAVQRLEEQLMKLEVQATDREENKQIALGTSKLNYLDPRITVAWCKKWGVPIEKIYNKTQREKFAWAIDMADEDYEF
UniProt Q9BUB7: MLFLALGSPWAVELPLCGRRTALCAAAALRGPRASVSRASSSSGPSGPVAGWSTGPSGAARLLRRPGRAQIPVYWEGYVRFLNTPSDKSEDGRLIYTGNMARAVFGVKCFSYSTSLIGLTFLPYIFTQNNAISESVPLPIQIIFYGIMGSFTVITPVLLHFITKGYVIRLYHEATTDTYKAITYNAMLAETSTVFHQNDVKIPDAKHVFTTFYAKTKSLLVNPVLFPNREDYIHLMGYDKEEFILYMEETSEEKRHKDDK
UniProt Q9NS69: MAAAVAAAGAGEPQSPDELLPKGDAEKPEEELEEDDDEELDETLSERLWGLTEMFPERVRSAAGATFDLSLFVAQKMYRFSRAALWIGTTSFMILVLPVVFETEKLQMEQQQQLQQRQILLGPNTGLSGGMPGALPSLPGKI
UniProt P06753, whole entry, looked up: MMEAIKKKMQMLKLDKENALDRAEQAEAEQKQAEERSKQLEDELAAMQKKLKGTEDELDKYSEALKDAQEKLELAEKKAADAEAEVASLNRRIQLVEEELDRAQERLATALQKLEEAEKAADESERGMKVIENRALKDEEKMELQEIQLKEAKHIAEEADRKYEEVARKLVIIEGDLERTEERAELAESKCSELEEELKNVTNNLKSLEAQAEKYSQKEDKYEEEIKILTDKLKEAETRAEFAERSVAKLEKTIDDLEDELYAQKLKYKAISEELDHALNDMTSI
UniProt Q4ZIN3: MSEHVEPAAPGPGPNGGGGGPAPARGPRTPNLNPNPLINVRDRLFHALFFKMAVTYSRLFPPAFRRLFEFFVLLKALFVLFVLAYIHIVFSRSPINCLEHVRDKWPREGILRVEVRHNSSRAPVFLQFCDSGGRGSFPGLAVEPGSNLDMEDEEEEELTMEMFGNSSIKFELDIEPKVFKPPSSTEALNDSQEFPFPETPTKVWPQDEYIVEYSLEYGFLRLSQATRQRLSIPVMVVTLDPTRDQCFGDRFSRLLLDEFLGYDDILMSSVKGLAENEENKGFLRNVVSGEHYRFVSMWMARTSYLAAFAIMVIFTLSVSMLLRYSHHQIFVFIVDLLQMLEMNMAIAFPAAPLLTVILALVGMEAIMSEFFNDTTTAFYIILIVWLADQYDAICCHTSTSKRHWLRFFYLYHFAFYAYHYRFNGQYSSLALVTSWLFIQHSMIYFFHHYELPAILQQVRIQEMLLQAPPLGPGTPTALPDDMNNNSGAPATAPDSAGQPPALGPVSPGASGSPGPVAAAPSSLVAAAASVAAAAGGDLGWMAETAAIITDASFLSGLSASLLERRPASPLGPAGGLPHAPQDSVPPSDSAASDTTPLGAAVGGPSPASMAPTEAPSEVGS

How the values were obtained:
Assay in all cases: log2 fold change, soluble protein after heating vs DMSO (PISA); higher = thermal stabilisation; K562 lysate, 10 uM; active = over 0.2 and 3.5 SD of the protein, either way, in both replicates (recomputed)
lapatinib = compound: CS(=O)(=O)CCNCc1ccc(-c2ccc3ncnc(Nc4ccc(OCc5cccc(F)c5)c(Cl)c4)c3c2)o1 [lapatinib]
How it was run: (§1)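 Pellets of K562 cells were dounce-homogenised in PBS pH 7.4 with 1 mM MgCl2, and the crude extract was held at 1 mg/mL protein for a 30 min treatment with 10 μM compound. Aliquots were heated for 3 min over 48°C-58°C and pooled before NP-40 was added to 0.5% at 4°C. The supernatant from 21,000xg for 90 min was quantified by TMTpro 16plex LC-MS/MS with channel sums equalised. Values are reported from duplicates as log-two fold change in thermal stability relative to solvent controls.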

pictilisib = compound: CS(=O)(=O)N1CCN(Cc2cc3nc(-c4cccc5[nH]ncc45)nc(N4CCOCC4)c3s2)CC1 [pictilisib]
How it was run: as §1

crizotinib = compound: C[C@@H](Oc1cc(-c2cnn(C3CCNCC3)c2)cnc1N)c1c(Cl)ccc(F)c1Cl [crizotinib]
How it was run: as §1

[1] = compound: C[C@H](C1=CC=C(C=C1)C(=O)NC2=C3C=CNC3=NC=C2)N
How it was run: as §1

duvelisib = compound: C[C@H](Nc1ncnc2nc[nH]c12)c1cc2cccc(Cl)c2c(=O)n1-c1ccccc1 [duvelisib]
How it was run: as §1

gandotinib = compound: Cc1cc(Nc2cc(CN3CCOCC3)c3nc(C)c(Cc4ccc(Cl)cc4F)n3n2)n[nH]1 [gandotinib]
How it was run: as §1

tozasertib = compound: Cc1cc(Nc2cc(N3CCN(C)CC3)nc(Sc3ccc(NC(=O)C4CC4)cc3)n2)n[nH]1 [tozasertib]
How it was run: as §1

doramapimod = compound: Cc1ccc(-n2nc(C(C)(C)C)cc2NC(=O)Nc2ccc(OCCN3CCOCC3)c3ccccc23)cc1 [doramapimod]
How it was run: as §1

bafetinib = compound: Cc1ccc(NC(=O)c2ccc(CN3CC[C@H](N(C)C)C3)c(C(F)(F)F)c2)cc1Nc1nccc(-c2cncnc2)n1 [bafetinib]
How it was run: as §1

[2] = compound: Cc1cccc(CC(=O)N2CCc3c2ccc(-c2cn(C)c4ncnc(N)c24)c3F)n1
How it was run: as §1

Row | Target | log2 fold change (lapatinib) | log2 fold change (pictilisib) | log2 fold change (crizotinib) | log2 fold change [1] | log2 fold change (duvelisib) | log2 fold change (gandotinib) | log2 fold change (tozasertib) | log2 fold change (doramapimod) | log2 fold change (bafetinib) | log2 fold change [2]
1 | TOMM70 (UniProt O94826) | inactive: 0.036 | inactive: -0.02 | inactive: 0.018 | inactive: 0.133 | inactive: -0.013 | inactive: -0.104 | inactive: 0.064 | inactive: 0.024 | inactive: -0.001 | inactive: -0.04
2 | TMEM63A (UniProt O94886) | inactive: -0.009 | inactive: -0.013 | inactive: 0.072 | inactive: 0.095 | inactive: 0.022 | inactive: -0.012 | inactive: 0.041 | inactive: 0.02 | inactive: 0.037 | inactive: -0.136
3 | TOM1 isoform 2 (UniProt O60784) | inactive: 0.036 | inactive: 0.007 | inactive: -0.065 | inactive: -0.009 | inactive: 0.023 | inactive: 0.019 | inactive: -0.031 | inactive: 0.045 | inactive: -0.024 | inactive: 0.029
4 | TMEM208 (UniProt Q9BTX3) | inactive: 0 | inactive: 0.007 | inactive: -0.102 | inactive: -0.348 | inactive: -0.135 | inactive: 0.136 | inactive: 0.041 | inactive: -0.006 | inactive: -0.033 | inactive: 0.239
5 | TMPO (UniProt P42167) | inactive: 0.053 | inactive: 0.029 | inactive: 0.059 | inactive: 0.047 | inactive: -0.039 | inactive: -0.033 | inactive: 0.035 | inactive: -0.037 | inactive: 0.005 | inactive: -0.04
6 | TMOD1 (UniProt P28289) | inactive: 0 | inactive: -0.032 | inactive: -0.011 | inactive: 0.039 | inactive: -0.008 | inactive: -0.059 | inactive: 0.026 | inactive: 0.019 | inactive: -0.004 | inactive: -0.029
7 | TMEM69 (UniProt Q5SWH9) | inactive: 0.02 | inactive: -0.134 | inactive: 0.17 | inactive: -0.172 | inactive: 0.082 | inactive: 0.081 | inactive: 0.084 | inactive: -0.121 | inactive: -0.012 | inactive: 0.145
8 | TPM4 isoform 2 (UniProt P67936) | inactive: 0.007 | inactive: 0 | inactive: 0.091 | active: 0.329 | inactive: 0.011 | inactive: -0.138 | inactive: -0.027 | inactive: 0.002 | inactive: 0.075 | inactive: -0.164
9 | TNIK (UniProt C9J338) | inactive: -0.042 | inactive: -0.023 | inactive: -0.075 | active: -0.443 | inactive: 0.115 | inactive: 0.344 | inactive: 0.012 | inactive: 0.005 | inactive: -0.258 | inactive: 0.344
10 | TMEM63B (UniProt Q5T3F8) | inactive: 0.008 | inactive: -0.024 | inactive: 0.028 | inactive: -0.066 | inactive: 0.057 | inactive: 0.05 | inactive: 0.035 | inactive: 0.003 | inactive: 0.046 | inactive: 0.061
11 | TNKS1BP1 (UniProt Q9C0C2) | inactive: -0.001 | inactive: 0.007 | inactive: 0.002 | inactive: -0.02 | inactive: -0.003 | inactive: 0.049 | inactive: 0.014 | inactive: -0.014 | inactive: -0.014 | inactive: 0.008
12 | TRA2A (UniProt Q13595) | inactive: -0.012 | inactive: 0.032 | inactive: -0.184 | inactive: -0.048 | inactive: -0.048 | inactive: -0.011 | inactive: 0.015 | inactive: 0.086 | inactive: 0.042 | inactive: 0.053
13 | TMEM97 (UniProt Q5BJF2) | inactive: -0.052 | inactive: -0.004 | inactive: 0.113 | active: -0.277 | inactive: 0.014 | inactive: 0.17 | inactive: -0.013 | inactive: -0.127 | inactive: -0.015 | inactive: 0.12
14 | TMEM189 (UniProt A5PLL7) | inactive: -0.02 | inactive: -0.21 | inactive: 0.067 | inactive: -0.144 | inactive: 0.329 | inactive: 0.108 | inactive: -0.058 | inactive: 0.052 | inactive: -0.15 | inactive: 0.003
15 | TOP1 (UniProt P11387) | inactive: -0.012 | inactive: -0.021 | inactive: -0.024 | inactive: 0.003 | inactive: 0.003 | inactive: -0.099 | inactive: 0.032 | inactive: -0.028 | inactive: -0.04 | inactive: 0.017
16 | TMEM70 (UniProt Q9BUB7) | inactive: -0.002 | inactive: -0.012 | inactive: -0.082 | active: -0.304 | inactive: 0.011 | inactive: 0.057 | inactive: -0.014 | inactive: 0.092 | inactive: -0.038 | inactive: 0.138
17 | TMEM68 (UniProt Q96MH6) | inactive: -0.018 | inactive: -0.037 | inactive: -0.016 | inactive: -0.079 | inactive: -0.033 | inactive: 0.067 | inactive: 0.059 | inactive: 0.045 | inactive: -0.028 | inactive: 0.08
18 | TOMM22 (UniProt Q9NS69) | inactive: 0.029 | inactive: -0.016 | inactive: -0.01 | inactive: -0.049 | inactive: 0.045 | inactive: 0.025 | inactive: -0.005 | inactive: -0.006 | inactive: -0.019 | inactive: -0.01
19 | TPM3 isoform 2 (UniProt P06753) | inactive: -0.012 | inactive: 0.021 | inactive: 0.093 | inactive: 0.095 | inactive: 0.003 | inactive: -0.169 | inactive: 0.067 | inactive: 0.02 | inactive: 0.055 | inactive: -0.152
20 | TOR4A (UniProt Q9NXH8) | inactive: -0.033 | inactive: -0.067 | inactive: -0.081 | inactive: -0.042 | inactive: 0.018 | inactive: -0.027 | inactive: -0.069 | inactive: 0.036 | inactive: -0.015 | inactive: 0.046
21 | TOR1AIP2 (UniProt Q8NFQ8) | inactive: -0.002 | inactive: -0.024 | inactive: 0.079 | inactive: 0.032 | inactive: -0.029 | inactive: -0.064 | inactive: -0.017 | inactive: 0.027 | inactive: -0.01 | inactive: -0.029
22 | TMEM259 (UniProt Q4ZIN3) | inactive: -0.062 | inactive: -0.035 | inactive: -0.072 | inactive: -0.079 | inactive: 0.077 | inactive: -0.081 | inactive: -0.208 | inactive: -0.077 | inactive: -0.021 | inactive: 0.055
23 | TNPO2 (UniProt O14787) | inactive: -0.037 | inactive: -0.002 | inactive: 0.004 | inactive: 0.062 | inactive: 0 | inactive: -0.087 | inactive: -0.009 | inactive: -0.039 | inactive: -0.001 | inactive: 0
24 | TMX2 (UniProt Q9Y320) | inactive: -0.002 | inactive: -0.032 | inactive: -0.031 | inactive: -0.029 | inactive: -0.028 | inactive: 0.032 | inactive: 0.068 | inactive: 0.069 | inactive: 0.01 | inactive: -0.005
25 | TRABD (UniProt Q9H4I3) | inactive: 0.058 | inactive: 0.023 | inactive: -0.033 | inactive: -0.07 | inactive: -0.054 | inactive: 0.061 | inactive: 0.005 | inactive: 0.004 | inactive: -0.011 | inactive: 0.06
26 | TMEM230 isoform 2 (UniProt Q96A57) | inactive: -0.001 | inactive: -0.132 | inactive: 0.101 | inactive: 0.011 | inactive: -0.021 | inactive: 0.008 | inactive: 0.068 | inactive: 0.062 | inactive: 0.097 | inactive: 0.084
27 | TMX1 (UniProt Q9H3N1) | inactive: -0.038 | inactive: -0.003 | inactive: 0.081 | inactive: -0.032 | inactive: -0.016 | inactive: 0.045 | inactive: 0.036 | inactive: 0.039 | inactive: -0.038 | inactive: -0.017

Exported with tabs: part of the list above.
Row	Target	log2 fold change (lapatinib)	log2 fold change (pictilisib)	log2 fold change (crizotinib)	log2 fold change [1]	log2 fold change (duvelisib)	log2 fold change (gandotinib)	log2 fold change (tozasertib)	log2 fold change (doramapimod)	log2 fold change (bafetinib)	log2 fold change [2]
17	TMEM68 (UniProt Q96MH6)	inactive: -0.018	inactive: -0.037	inactive: -0.016	inactive: -0.079	inactive: -0.033	inactive: 0.067	inactive: 0.059	inactive: 0.045	inactive: -0.028	inactive: 0.08
18	TOMM22 (UniProt Q9NS69)	inactive: 0.029	inactive: -0.016	inactive: -0.01	inactive: -0.049	inactive: 0.045	inactive: 0.025	inactive: -0.005	inactive: -0.006	inactive: -0.019	inactive: -0.01
